Measurements reported in PubChem BioAssay AID1224830 (NIAID, 2016).

Assay: 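Regulators of TLR4 signalling towards TNF-alpha in macrophage-like cells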 (primary screen)
Cells: human THP-1 monocytic leukaemia cells, TNF dual-luciferase reporter clone, PMA-differentiated to macrophage-like cells
Reagent: siRNA pool against human genes, 50 nM
Time to read-out: LPS for 4 h, given about 3 days after siRNA transfection
Treatment: bacterial LPS (TLR4 ligand), 10 ng/ml
Detection: 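TNF firefly reporter luminescence divided by renilla, normalised to the plate median, then turned into a robust z-score for each replicate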
Direction: TNF reporter robust z-score: higher = stronger TNF reporter response to LPS
Rule for the call: 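a well is active when its z-score exceeds 2.8 or falls below -1.5; control wells carry no call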
The deposit covers about 18,000 reagents; shown is a random part of them. About 2,900 of all reagents (16%) count as active. 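Calls are made per well; low scores hint the gene aids the LPS response, high scores that it dampens it.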 Unmarked entries are inactive. Repeated entries: four replicate wells of each siRNA pool.

Target gene,TNF reporter robust z-score
GTF2IRD2B,2.77
GTF2IRD2B,2.47
GTF2IRD2B,3.98 (active)
GTF2IRD2B,3.06 (active)
MTMR9,1.18
MTMR9,4.51 (active)
MTMR9,0.59
MTMR9,2.34
TSPAN4,0.79
TSPAN4,0.07
TSPAN4,-0.25
TSPAN4,-1.26
MRRF,-0.52
MRRF,-0.59
MRRF,-0.74
MRRF,-0.97
COQ8B,0.44
COQ8B,0.35
COQ8B,0.07
COQ8B,-0.56
UCMA,-0.73
UCMA,-0.51
UCMA,-0.58
UCMA,-0.07
CCDC33,-1.02
CCDC33,-1.83 (active)
CCDC33,-1.56 (active)
CCDC33,-1.17
SHROOM3,0.66
SHROOM3,1.13
SHROOM3,0.36
SHROOM3,0.99
MPZL3,1.92
MPZL3,1.95
MPZL3,-0.19
MPZL3,0.18

The listing continues:
Target gene,TNF reporter robust z-score
PPP6R3,-0.71
PPP6R3,-0.79
PPP6R3,0.94
PPP6R3,2.01
SNAPC2,0.14
SNAPC2,1.94
SNAPC2,0.51
SNAPC2,0.32
SPIN2B,-0.28
SPIN2B,-0.2
SPIN2B,-0.9
SPIN2B,-0.43
NGF,-0.48
NGF,-0.71
NGF,-0.04
NGF,0.46
STT3B,0.35
STT3B,0.84
STT3B,0.63
STT3B,1.89
ZNHIT2,-0.23
ZNHIT2,-0.39
ZNHIT2,0.09
ZNHIT2,-0.1
SOS1,-0.16
SOS1,-0.01
SOS1,-0.4
SOS1,0.26
PCDHGB4,1.55
PCDHGB4,0.79
PCDHGB4,2.45
PCDHGB4,2
OCEL1,-0.7
OCEL1,-0.77
OCEL1,-0.67
OCEL1,-0.69
TBCC,0.14
TBCC,0.46
TBCC,0.32
TBCC,1.08
